The test addresses Plasmodium vivax N-myristoyltransferase (Plasmodium vivax Sal-1 (strain Salvador I)). The test can be described thus: SEC; Superdex 75 26/60, 20 mM HEPES pH 7.0, 300 mM NaCl, 5% glycerol, 1 mM TCEP; preparative step after IMAC; both purified. (In gel filtration, larger molecules generally elute earlier.)

These are yes or no findings as the source states them, for the method shown.

B1: Plasmodium vivax N-myristoyltransferase (enzyme)
chain: DYKFWYTQPVPKINDEFNESVNEPFISDNKVEDVRKDEYKLPPGYSWYVCDVKDEKDRSEIYTLLTDNYVEDDDNIFRFNYSAEFLLWALTSPNYLKTWHIGVKYDASNKLIGFISAIPTDICIHKRTIKMAEVNFLCVHKTLRSKRLAPVLIKEITRRINLENIWQAIYTAGVYLPKPVSDARYYHRSINVKKLIEIGFSSLNSRLTMSRAIKLYRVEDTLNIKNMRLMKKKDVEGVHKLLGSYLEQFNLYAVFTKEEIAHWFLPIENVIYTYVNEENGKIKDMISFYSLPSQILGNDKYSTLNAAYSFYNVTTTATFKQLMQDAILLAKRNNFDVFNALEVMQNKSVFEDLKFGEGDGSLKYYLYNWKCASFAPAHVGIVLL
Turning to B1, the binding result is on record as “no binding”.

The values above are taken from article PMC11448930.
